Results are given in words; binding and its absence hold for the method and conditions named. Binding seen in cells or lysates may run through a third protein. Binding can be weak; no strength is given. For some of these results: Tags and fused reporters may be left off the sequences shown.
Tests used:
[1] = biological target: TNFR1, endogenous in HEK293T (human (endogenous in HEK293T)); test: pull-down; cells treated with GST-TNFα (1 μg/ml) for the indicated time, lysed in IP lysis buffer; ligand-bound TNFR1 complex I retrieved on glutathione-Sepharose 4B overnight at 4°C; Western blot; also RIP1-null Jurkat, HSPA13−/− HT29 and reconstituted HT29 cells
[2] = biological target: TNFR1, endogenous in Jurkat (human (endogenous in Jurkat)); test: as above
[3] = biological target: TNFR1, endogenous in HT29 (human (endogenous in HT29)); test: as above
[4] = biological target: TNFR1, endogenous in HeLa (human (endogenous in HeLa)); test: proximity ligation; HeLa cells stably expressing Flag-HSPA13 or Flag-Δ1-24, fixed with 4% formaldehyde, 0.5% Triton X-100; Duolink In Situ Red Starter Kit; confocal microscopy

B1: HSPA13, endogenous in HEK293T (protein, UniProt P48723 23-471)
chain: QQYLPLPTPKVIGIDLGTTYCSVGVFFPGTGKVKVIPDENGHISIPSMVSFTDNDVYVGYESVELADSNPQNTIYDAKRFIGKIFTAEELEAEIGRYPFKVLNKNGMVEFSVTSNETITVSPEYVGSRLLLKLKEMAEAYLGMPVANAVISVPAEFDLKQRNSTIEAANLAGLKILRVINEPTAAAMAYGLHKADVFHVLVIDLGGGTLDVSLLNKQGGMFLTRAMSGNNKLGGQDFNQRLLQYLYKQIYQTYGFVPSRKEEIHRLRQAVEMVKLNLTLHQSAQLSVLLTVEEQDRKEPHSSDTELPKDKLSSADDHRVNSGFGRGLSDKKSGESQVLFETEISRKLFDTLNEDLFQKILVPIQQVLKEGHLEKTEIDEVVLVGGSTRIPRIRQVIQEFFGKDPNTSVDPDLAVVTGVAIQAGIDGGSWPLQVSALEIPNKHLQKTNFN
In the case of B1, the binding [1] is reported as “binds”.

B2: HSPA13, endogenous in Jurkat (protein, UniProt P48723 23-471)
chain: QQYLPLPTPKVIGIDLGTTYCSVGVFFPGTGKVKVIPDENGHISIPSMVSFTDNDVYVGYESVELADSNPQNTIYDAKRFIGKIFTAEELEAEIGRYPFKVLNKNGMVEFSVTSNETITVSPEYVGSRLLLKLKEMAEAYLGMPVANAVISVPAEFDLKQRNSTIEAANLAGLKILRVINEPTAAAMAYGLHKADVFHVLVIDLGGGTLDVSLLNKQGGMFLTRAMSGNNKLGGQDFNQRLLQYLYKQIYQTYGFVPSRKEEIHRLRQAVEMVKLNLTLHQSAQLSVLLTVEEQDRKEPHSSDTELPKDKLSSADDHRVNSGFGRGLSDKKSGESQVLFETEISRKLFDTLNEDLFQKILVPIQQVLKEGHLEKTEIDEVVLVGGSTRIPRIRQVIQEFFGKDPNTSVDPDLAVVTGVAIQAGIDGGSWPLQVSALEIPNKHLQKTNFN
For B2, the binding [2] was “binds”.

B3: Flag-HSPA13 (HT29, stable) (protein, UniProt P48723 23-471)
chain: QQYLPLPTPKVIGIDLGTTYCSVGVFFPGTGKVKVIPDENGHISIPSMVSFTDNDVYVGYESVELADSNPQNTIYDAKRFIGKIFTAEELEAEIGRYPFKVLNKNGMVEFSVTSNETITVSPEYVGSRLLLKLKEMAEAYLGMPVANAVISVPAEFDLKQRNSTIEAANLAGLKILRVINEPTAAAMAYGLHKADVFHVLVIDLGGGTLDVSLLNKQGGMFLTRAMSGNNKLGGQDFNQRLLQYLYKQIYQTYGFVPSRKEEIHRLRQAVEMVKLNLTLHQSAQLSVLLTVEEQDRKEPHSSDTELPKDKLSSADDHRVNSGFGRGLSDKKSGESQVLFETEISRKLFDTLNEDLFQKILVPIQQVLKEGHLEKTEIDEVVLVGGSTRIPRIRQVIQEFFGKDPNTSVDPDLAVVTGVAIQAGIDGGSWPLQVSALEIPNKHLQKTNFN
For B3, the binding [3] was “binds”.

B4: Flag-HSPA13 (HeLa, stable) (protein, UniProt P48723 23-471)
chain: QQYLPLPTPKVIGIDLGTTYCSVGVFFPGTGKVKVIPDENGHISIPSMVSFTDNDVYVGYESVELADSNPQNTIYDAKRFIGKIFTAEELEAEIGRYPFKVLNKNGMVEFSVTSNETITVSPEYVGSRLLLKLKEMAEAYLGMPVANAVISVPAEFDLKQRNSTIEAANLAGLKILRVINEPTAAAMAYGLHKADVFHVLVIDLGGGTLDVSLLNKQGGMFLTRAMSGNNKLGGQDFNQRLLQYLYKQIYQTYGFVPSRKEEIHRLRQAVEMVKLNLTLHQSAQLSVLLTVEEQDRKEPHSSDTELPKDKLSSADDHRVNSGFGRGLSDKKSGESQVLFETEISRKLFDTLNEDLFQKILVPIQQVLKEGHLEKTEIDEVVLVGGSTRIPRIRQVIQEFFGKDPNTSVDPDLAVVTGVAIQAGIDGGSWPLQVSALEIPNKHLQKTNFN
With B4 the binding [4] was “binds”.

Reference: paper PMC8494447
